Results are given in words; binding and its absence hold for the method and conditions named. Binding seen in cells or lysates may run through a third protein. Some entries that bind do so weakly or less than the wild type.
Biological target: Glycogen Synthase Kinase 3 Beta (human (endogenous in AC16)) (UniProt P49841)
Assay: co-IP

Sequences of proteins named here, by UniProt entry; tags and fusion partners are left off.
UniProt P49841: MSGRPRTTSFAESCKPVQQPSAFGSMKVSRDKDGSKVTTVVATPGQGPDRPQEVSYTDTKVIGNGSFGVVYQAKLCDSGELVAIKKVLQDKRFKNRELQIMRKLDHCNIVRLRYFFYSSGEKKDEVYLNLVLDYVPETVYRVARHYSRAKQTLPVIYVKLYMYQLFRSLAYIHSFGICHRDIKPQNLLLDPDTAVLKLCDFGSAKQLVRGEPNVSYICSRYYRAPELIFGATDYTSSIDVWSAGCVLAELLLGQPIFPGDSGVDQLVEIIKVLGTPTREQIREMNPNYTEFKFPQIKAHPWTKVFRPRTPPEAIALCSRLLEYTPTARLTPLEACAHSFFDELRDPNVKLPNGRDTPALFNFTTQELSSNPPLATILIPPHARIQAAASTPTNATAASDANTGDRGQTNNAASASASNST

| binding | Binder |
| --- | --- |
| binds | Disrupted-in-Schizophrenia 1 (DISC1) in human AC16 cardiomyocytes (protein, UniProt Q9NRI5 1-854) MPGGGPQGAPAAAGGGGVSHRAGSRDCLPPAACFRRRRLARRPGYMRSSTGPGIGFLSPAVGTLFRFPGGVSGEESHHSESRARQCGLDSRGLLVRSPVSKSAAAPTVTSVRGTSAHFGIQLRGGTRLPDRLSWPCGPGSAGWQQEFAAMDSSETLDASWEAACSDGARRVRAAGSLPSAELSSNSCSPGCGPEVPPTPPGSHSAFTSSFSFIRLSLGSAGERGEAEGCPPSREAESHCQSPQEMGAKAASLDGPHEDPRCLSRPFSLLATRVSADLAQAARNSSRPERDMHSLPDMDPGSSSSLDPSLAGCGGDGSSGSGDAHSWDTLLRKWEPVLRDCLLRNRRQMEVISLRLKLQKLQEDAVENDDYDKAETLQQRLEDLEQEKISLHFQLPSRQPALSSFLGHLAAQVQAALRRGATQQASGDDTHTPLRMEPRLLEPTAQDSLHVSITRRDWLLQEKQQLQKEIEALQARMFVLEAKDQQLRREIEEQEQQLQWQGCDLTPLVGQLSLGQLQEVSKALQDTLASAGQIPFHAEPPETIRSLQERIKSLNLSLKEITTKVCMSEKFCSTLRKKVNDIETQLPALLEAKMHAISGNHFWTAKDLTEEIRSLTSEREGLEGLLSKLLVLSSRNVKKLGSVKEDYNRLRREVEHQETAYETSVKENTMKYMETLKNKLCSCKCPLLGKVWEADLEACRLLIQSLQLQEARGSLSVEDERQMDDLEGAAPPIPPRLHSEDKRKTPLKVLEEWKTHLIPSLHCAGGEQKEESYILSAELGEKCEDIGKKLLYLEDQLHTAIHSHDEDLIQSLRRELQMVKETLQAMILQLQPAKEAGEREAAASCMTAGVHEAQA |
| binds | full length (FL) wild type DISC1 resistant to RNAi (DISC1-FL^R) (protein, UniProt Q9NRI5-1 1-854) MPGGGPQGAPAAAGGGGVSHRAGSRDCLPPAACFRRRRLARRPGYMRSSTGPGIGFLSPAVGTLFRFPGGVSGEESHHSESRARQCGLDSRGLLVRSPVSKSAAAPTVTSVRGTSAHFGIQLRGGTRLPDRLSWPCGPGSAGWQQEFAAMDSSETLDASWEAACSDGARRVRAAGSLPSAELSSNSCSPGCGPEVPPTPPGSHSAFTSSFSFIRLSLGSAGERGEAEGCPPSREAESHCQSPQEMGAKAASLDGPHEDPRCLSRPFSLLATRVSADLAQAARNSSRPERDMHSLPDMDPGSSSSLDPSLAGCGGDGSSGSGDAHSWDTLLRKWEPVLRDCLLRNRRQMEVISLRLKLQKLQEDAVENDDYDKAETLQQRLEDLEQEKISLHFQLPSRQPALSSFLGHLAAQVQAALRRGATQQASGDDTHTPLRMEPRLLEPTAQDSLHVSITRRDWLLQEKQQLQKEIEALQARMFVLEAKDQQLRREIEEQEQQLQWQGCDLTPLVGQLSLGQLQEVSKALQDTLASAGQIPFHAEPPETIRSLQERIKSLNLSLKEITTKVCMSEKFCSTLRKKVNDIETQLPALLEAKMHAISGNHFWTAKDLTEEIRSLTSEREGLEGLLSKLLVLSSRNVKKLGSVKEDYNRLRREVEHQETAYETSVKENTMKYMETLKNKLCSCKCPLLGKVWEADLEACRLLIQSLQLQEARGSLSVEDERQMDDLEGAAPPIPPRLHSEDKRKTPLKVLEEWKTHLIPSLHCAGGEQKEESYILSAELGEKCEDIGKKLLYLEDQLHTAIHSHDEDLIQSLRRELQMVKETLQAMILQLQPAKEAGEREAAASCMTAGVHEAQA |
